# Test results as given in article PMC11335228.
# By UniProt entry, the sequences of proteins in these tests, tags left out. Where a name states a change or a piece, a line headed by the entry shows the natural chain unless it says otherwise. Chains listed by the source or under a name are the forms on record and can include a tag or linker. Residues count along the entry.
# DNAX-activating protein of 12 kDa (DAP12) wt, overexpressed in HEK293 cells (O43914, residues 22-113): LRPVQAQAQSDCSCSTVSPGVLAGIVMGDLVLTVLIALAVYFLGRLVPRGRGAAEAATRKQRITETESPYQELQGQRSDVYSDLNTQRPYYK
# DAP12 D50A mutant, overexpressed in HEK293 cells (O43914, form named): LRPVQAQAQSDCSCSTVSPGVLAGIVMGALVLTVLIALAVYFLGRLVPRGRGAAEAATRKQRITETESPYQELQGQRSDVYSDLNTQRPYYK
# These are yes or no findings as the source states them, for the method shown. For some of these results: In cells and extracts the contact can be indirect. Some results given as binding are weak or reduced against the parent protein; the word gives no strength.
# Assays:
# [1] = target: T1, Retention in ER sorting receptor 1 (RER1) in HEK293 cells (human (endogenous in HEK293)) (UniProt O15258); test: co-IP; HEK293 cells transiently expressing DAP12 wt or DAP12 D50A with or without TREM2 (Fig. 5A); membrane lysates in 1% n-dodecyl-β-d-maltoside, 5 µg antibody 4 h at RT, Sepharose Protein G beads; western immunoblot
# T1 sequence: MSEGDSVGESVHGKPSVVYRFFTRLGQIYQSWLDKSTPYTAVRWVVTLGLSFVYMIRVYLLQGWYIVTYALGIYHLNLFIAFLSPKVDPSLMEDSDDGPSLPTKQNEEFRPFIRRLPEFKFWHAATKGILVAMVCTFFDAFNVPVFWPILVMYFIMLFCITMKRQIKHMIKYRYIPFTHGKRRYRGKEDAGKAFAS
# [2] = target: T2, RER1, endogenous in macrophage-like differentiated THP-1 cells (human (endogenous in THP-1)) (UniProt O15258); test: co-IP; macrophage-like differentiated THP-1 wt and TREM2 ko cells, endogenous proteins (Fig. 5B and C; anti-RER1 antibody used in the IP in C); membrane lysates in 1% n-dodecyl-β-d-maltoside, Sepharose Protein G beads; western immunoblot
# T2 sequence: T1 sequence
# [3] = target: DAP12, endogenous in macrophage-like differentiated THP-1 cells (human (endogenous in THP-1)) (UniProt O43914); test: condition: only under reducing conditions (DTT, 100 mM); reducing SDS-PAGE and western immunoblotting; membranes of differentiated THP-1 cells; SDS sample buffer with DTT (100 mM), 5 min 95 °C
Substance,binding [1],binding [2],binding [3]
"DAP12 D50A mutant, overexpressed in HEK293 cells (from UniProt O43914 22-113)",no binding,,
"DAP12, endogenous in macrophage-like differentiated THP-1 cells (from UniProt O43914 22-113)",,binds,no binding
"DNAX-activating protein of 12 kDa (DAP12) wt, overexpressed in HEK293 cells (from UniProt O43914 22-113)",binds,,
